Measured values from publication PMC10770055.
Results are given in words; binding and its absence hold for the method and conditions named. In cells and extracts the contact can be indirect. Some binding calls cover weakened binding; strength is not graded here.

Molecular target: Y-box binding protein 1 (human (endogenous in TNBC cells)) (UniProt P67809)
Experiment: co-IP; endogenous co-IP from TNBC cell lysate (IP lysis buffer); IP with mouse anti-YBX1 at 4 °C overnight, mouse IgG as control, protein A/G beads, 6 washes; blot with rabbit anti-YBX1 and rabbit anti-RAF1

For RAF1 (from UniProt P04049 1-648), the binding was “binds”.
